Numbering of substitutions follows the chain as printed. No constants are given. Whether binding was seen depends on the method and setting. Some entries that bind do so weakly or less than the wild type.
B1: 559B-M0035-F05 (Fab, V domains shown)
VH: EVQLLESGGGLVQPGGSLRLSCAASGFTFSHYPMAWVRQAPGKGLEWVSGIVSSGGRTVYADSVKGRFTISRDNSKNTLYLQMNSLRAEDTAVYYCARDPYDFWSEGAFDIWGQGTMVTVSS
VL: QSVLTQPPSASGTPGQRVTISCSGSSSNIGNNFVYWYHQVPGTAPKLLIYKNNQRPSGVPDRFSGSKSAASASLAISGLRSEDEADYYCAAWDNSLSGFYVFGAGTKVTVL
B2: 559B-M0048-D12 (Fab, V domains shown)
VH: EVQLLESGGGLVQPGGSLRLSCAASGFTFSRYQMTWVRQAPGKGLEWVSSIGSSGGFTNYADSVKGRFTISRDNSKNTLYLQMNSLRAEDTAVYYCARLPANFYYYMDVWGKGTTVTVSS
VL: DIQMTQSPSSLSASVGDRVTITCRASQNIYSFLNWYQQKPGKAPKLLIYATSSLQSGVPSRFSGSGSGTDFTLTISSLQPEDFASYYCQQNYNIPWTFGQGTKVEIK
B3: 559B-M0035-H09 (Fab, V domains shown)
VH: EVQLLESGGGLVQPGGSLRLSCAASGFTFSWYGMHWVRQAPGKGLEWVSRIGPSGGPTSYADSVKGRFTISRDNSKNTLYLQMNSLRAEDTAVYYCARGYYGTGRYFQHWGQGTLVTVSS
VL: DIQMTQSPDSLSLSPGDRATLSCRASQSVGSDYLAWYQQKPGQAPRLLIYDASNRATGIPARFSGSGSGTDFTLTISSLEPEDFAVYYCQQRSNWPPTFGGGTKVEIK
B4: 559B-M0047-H01 (Fab, V domains shown)
VH: EVQLLESGGGLVQPGGSLRLSCAASGFTFSFYMMYWVRQAPGKGLEWVSSISSSGGFTRYADSVKGRFTISRDNSKNTLYLQMNSLRAEDTAVYYCARVRGLAVAAPDYWGQGTLVTVSS
VL: QSELTQPASVSGSPGQSITISCIGTSSDIGTYNYVSWYQQHPGKAPKLMIYDVNTRPSGVSDRFSGSKSGNTASLTISGLQAEDEADYYCSSYTTSVTWVFGGGTTLTVL
B5: 559B-M0042-E06 (Fab, V domains shown)
VH: EVQLLESGGGLVQPGGSLRLSCAASGFTFSMYKMSWVRQAPGKGLEWVSVISPSGGRTYYADSVKGRFTISRDNSKNTLYLQMNSLRAEDTAVYYCARGTRTSGLDYWGQGTLVTVSS
VL: QSALTQPASVSGSPGQSITISCTGTSSDVGGYKYVSWYQQHPGKAPKLVIYEVSNRPSGVSNRFSGSKSGNTASLTISGLQAEDEADYYCSSYTSSTTVVFGGGTKLTVL
B6: 559B-M0043-C06 (Fab, V domains shown)
VH: EVQLLESGGGLVQPGGSLRLSCAASGFTFSAYAMRWVRQAPGKGLEWVSYISSSGGETMYADSVKGRFTISRDNSKNTLYLQMNSLRAEDTAVYYCANGYGRIDYWGQGTLVTVSS
VL: B5 VL with A3V, V29I, K33N, V49M, S96G, T97S, V99R, G103T, K106R, L107V
B7: 559B-M0017-H08 (Fab, V domains shown)
VH: EVQLLESGGGLVQPGGSLRLSCAASGFTFSPYWMHWVRQAPGKGLEWVSVISPSGGGTGYADSVKGRFTISRDNSKNTLYLQMNSLRAEDTAVYYCARESRGSGSHEDYWGQGTLVTVSS
VL: DIQMTQSPATLSLSPGERATLSCRASQSVSSYLAWYQQKPGQAPRLLIYGASNRGTGIPARFSGSGSGTEFTLTISSLQSEDFAVYFCQQYKNWPNLTFGGGTKVDIK
B8: 559B-M0044-E09 (Fab, V domains shown)
VH: EVQLLESGGGLVQPGGSLRLSCAASGFTFSQYSMGWVRQAPGKGLEWVSSIYSSGGSTQYADSVKGRFTISRDNSKNTLYLQMNSLRAEDTATYYCARTRRGWFGEDYYYYMDVWGKGTTVTVSS
VL: DIQMTQSPSSLSASVGDRITITCRASQGIRNDVGWYQQKPGKAPQRLIYAASSLQSGVPSRFSGSGSGTEFTLTISSLQPEDFATYYCLQHNSYPLTFGGGTKVEIK
B9: 559B-M0036-G12 (Fab, V domains shown)
VH: B8 VH with Q31R, S33Y, G35A, S50G, Y52V, S53P, S57Q, Q59G, T93V, T120L
VL: DIQMTQSPGTLSLSPGERATVSCRASQSVGSTYLAWYQHKPGQAPRLLIYGASSRATGIPDRFSGSGSGTDFTLTISSLEPEDFAIYYCQHFHTSPPGITFGQGTRLEIK
B10: 559B-M0068-C07 (Fab, V domains shown)
VH: EVQLLESGGGLVQPGGSLRLSCAASGFTFSSYQMHWVRQAPGKGLEWVSGIYSSGGSTPYADSVKGRFTISRDNSKNTLYLQMNSLRAEDTAVYYCARGHHGMDVWGQGTTVTVSS
VL: DIQMTQSPSSVSASVGDRVTITCRASQGISSWLAWYQQKPGKAPKLLIYAASNLQSGVPSRFSGSGSGTDFTLTISSLQPEDFATYYCQKYNIAPYTFGQGTKLEIK
B11: 559B-M0003-C08 (Fab, V domains shown)
VH: EVQLLESGGGLVQPGGSLRLSCAASGFTFSPYMMYWVRQAPGKGLEWVSSISPSGGKTWYADSVKGRFTISRDNSKNTLYLQMNSLRAEDTAVYYCARLGGSSSYYYYYYYGMDVWGQGTTVTVSS
VL: QSALTQSPSASGTPGQRVTISCSGSSSNIGGNTVNWYQQFPGTAPKLLIYSNNQRPSGVPDRFSGSKSGTSASLAISGLQSEDEAIYYCASWDDRLNGHWVFGGGTRLTVL
B12: 559B-M0038-F04 (Fab, V domains shown)
VH: EVQLLESGGGLVQPGGSLRLSCAASGFTFSKYEMMWVRQAPGKGLEWVSSISPSGGYTMYADSVKGRFTISRDNSKNTLYLQMNSLRAEDTAVYYCARHRSKWNDAPFDSWGQGTLVTVSS
VL: DIQMTQSPSSLSASVGDRVAITCRASQSIDTYLNWYQQKPGKAPKLLIYAASKLEDGVPSRFSGSGTGTDFTLTIRSLQPEDFASYFCQQSYSSPGITFGPGTKVEIK
B13: 559B-M0039-D08 (Fab, V domains shown)
VH: EVQLLESGGGLVQPGGSLRLSCAASGFTFSNYAMQWVRQAPGKGLEWVSWIYSSGGPTYYADSVKGRFTISRDNSKNTLYLQMNSLRAEDTAVYYCARGLPGQPFDYWGQGTLVTVSS
VL: QSELTQPPSASGTPGQRVTISCSGSSSNIGNNYVYWYQQFPGTAPKLLIYRNNQRPSGVPDRFSGSKSGTSASLAISGLRSEDEADYYCATWDDRLSGWVFGGGTKLTVL
B14: 559B-M0021-G11 (Fab, V domains shown)
VH: EVQLLESGGGLVQPGGSLRLSCAASGFTFSPYPMTWVRQAPGKGLEWVSGISSSGGFTPYADSVKGRFTISRDNSKNTLYLQMNSLRAEDTAVYYCARMVRGVIKAFDIWGQGTMVTVSS
VL: B13 VL with S2Y, N31S, N32H, Y35F, F40L, T43A, D94N, R95S, G98A
B15: 559B-M0019-E12 (Fab, V domains shown)
VH: EVQLLESGGGLVQPGGSLRLSCAASGFTFSGYNMYWVRQAPGKGLEWVSRISPSGGWTSYADSVKGRFTISRDNSKNTLYLQMNSLRAEDTAVYYCTRGQWMDWWGQGTMVTVSS
VL: DIQMTQSPSSLSASVGDRVIITCRASQNITGYLNWYQQKPGKAPNLLIYDASRMNTGVPSRFRGSGSGTDYILTIYKLEPEDIGTYFCQHTDDFSVTFGGGTKVDLK
B16: 559B-M0061-G06 (Fab, V domains shown)
VH: EVQLLESGGGLVQPGGSLRLSCAASGFTFSKYTMWWVRQAPGKGLEWVSVISSSGGKTYYADSVKGRFTISRDNSKNTLYLQMNSLRAEDTAVYYCARTANRAFDIWGQGTMVTVSS
VL: DIQMTQSPAALSVSPGERATLSCRASQSVSSDLAWYQQKPGQAPRLLIHGASTRATGIPARFSGSGSGREFTLTISSLQSEDFAVYYCQQYNDWPPLFGPGTKVNIK
B17: 559B-M0067-E02 (Fab, V domains shown)
VH: EVQLLESGGGLVQPGGSLRLSCAASGFTFSLYPMVWVRQAPGKGLEWVSSIYPSGGFTTYADSVKGRFTISRDNSKNTLYLQMNSLRAEDTAVYYCARSSRYYYYGMDVWGQGTTVTVSS
VL: QYELTQPPSMSGTPGQRVTISCSGSSSNIGSEYVYWFQQLPGTAPKLLIYRNDQRPSGVPDRFSGSKSGTSASLAISGLRSEDETDYYCSTWDDTLRTGVFGGGTKVTVL
B18: 559B-M0044-C05 (Fab, V domains shown)
VH: EVQLLESGGGLVQPGGSLRLSCAASGFTFSIYQMYWVRQAPGKGLEWVSSIYSSGGRTFYADSVKGRFTISRDNSKNTLYLQMNSLRAEDTAVYYCATRGSWYVGGNEYFQHWGQGTLVTVSS
VL: QSVLTQSPSLSLSPGQTASIPCSGDTLGNKFVSWYQQKPGQSPVLVIYQDTKRPSGIPERFSGSNSGNTATLTITGTQAMDEADYYCQVWDSNSYAFGPGTKVTVL
B19: 559B-M0039-H06 (Fab, V domains shown)
VH: EVQLLESGGGLVQPGGSLRLSCAASGFTFSAYDMHWVRQAPGKGLEWVSSIWPSGGGTYYADSVKGRFTISRDNSKNTLYLQMNSLRAEDTAVYYCARGDYDYGDFTDAFDIWGQGTMVTVSS
VL: QSALTQPASVSGSPGQSITISCTGTSSDVGSYNLVSWYQQHPGKAPKLMIYEGSKRPSGVPDRFSGSKSGNTASLIISGLQAEDEADYYCCSYAGSYSYVFGTGTRVTVL
B20: 559B-M0038-H03 (Fab, V domains shown)
VH: EVQLLESGGGLVQPGGSLRLSCAASGFTFSKYDMHWVRQAPGKGLEWVSRISSSGGKTEYADSVKGRFTISRDNSKNTLYLQMNSLRAEDTAVYYCAREYRYCTANTCSLYGMDVWGRGTTVTVSS
VL: DIQMTQSPSSLSASVGDRVAITCRTSQGVRSDFAWYQQTPGKAPRRLIYAAFILDNGVPSRFSGSGSGTEFTLTISSLQPEDFATYYCQQSYSTPLTFGGGTKVEMK

The chains behind the UniProt entries cited, without tags or fusion partners. Where a name states a change or a piece, a line headed by the entry shows the natural chain unless it says otherwise.
UniProt P01042: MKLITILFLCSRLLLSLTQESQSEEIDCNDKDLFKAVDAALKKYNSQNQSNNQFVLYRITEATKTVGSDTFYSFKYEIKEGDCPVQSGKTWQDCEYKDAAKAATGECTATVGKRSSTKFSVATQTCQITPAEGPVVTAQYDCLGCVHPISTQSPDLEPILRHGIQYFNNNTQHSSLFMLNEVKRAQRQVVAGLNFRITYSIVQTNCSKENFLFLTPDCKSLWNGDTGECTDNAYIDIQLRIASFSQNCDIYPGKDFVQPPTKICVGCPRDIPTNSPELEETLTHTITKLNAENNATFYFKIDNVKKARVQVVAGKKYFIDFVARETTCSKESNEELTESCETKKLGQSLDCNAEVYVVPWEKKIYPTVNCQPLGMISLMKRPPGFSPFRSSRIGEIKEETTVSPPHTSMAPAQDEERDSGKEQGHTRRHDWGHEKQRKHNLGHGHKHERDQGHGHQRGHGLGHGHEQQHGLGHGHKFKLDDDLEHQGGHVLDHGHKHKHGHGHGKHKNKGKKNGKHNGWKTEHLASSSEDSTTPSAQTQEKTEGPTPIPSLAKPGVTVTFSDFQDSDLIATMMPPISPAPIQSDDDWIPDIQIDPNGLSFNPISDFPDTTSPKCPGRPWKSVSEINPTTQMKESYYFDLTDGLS

molecular target: cleaved high molecular weight kininogen (HMWK) (human) (UniProt P01042); assay: ELISA: Fab coated on 96-well plate, LowCross block, biotinylated antigen, streptavidin-HRP; signal over uncoated well

binding | Binder
binds | B1
binds | B2
binds | B3
binds | B4
binds | B5
binds | B6
binds | B7
binds | B8
binds | B9
binds | B10
binds | B11
binds | B12
binds | B13
binds | B14
binds | B15
binds | B16
binds | B17
binds | B18
binds | B19
binds | B20

molecular target: cleaved high molecular weight kininogen (HMWK) (human) (UniProt P01042); assay: ELISA; Fab coated on 96-well plate, biotinylated antigen, streptavidin-HRP

binding | Binder
binds | B1
binds | B2
binds | B3
binds | B4
binds | B5
binds | B6
binds | B7
binds | B8
binds | B9
binds | B10
binds | B11
binds | B12
binds | B13
binds | B14
binds | B15
binds | B16
binds | B17
binds | B18
binds | B19
binds | B20

Source: patent US20210270842A1
